PubChem BioAssay AID1347076 (National Center for Advancing Translational Sciences (NCATS), 2019)
Among all 400,000 compounds or so, about 13,000 (3.2%) were called active. Inconclusive means that the source gave no clear call. Such entries were picked first, then a sample of the others. Calls come from the whole dose curve; as a rule, active = well fitted cell-killing curve with a large enough effect; inconclusive = small, poorly fitted or top-dose-only effect, or effect the other way; inactive = flat fitted curve, though single readings scatter. Potencies beside an inconclusive call are fits to weak or partial responses and may not hold up.

Experiment: qHTS assay for MDR1-selective chemotherapeutics: Primary screen using the drug-selected MDR subline cells KB-V1; note: nearly all actives have a fitted effect of over 60% in size
Conditions: KB-V1 MDR cells viability, CellTiter-Glo, 72 h; activity change, negative = cytotoxicity: at 46.1 µM (top of the series)
In short: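 Cytotoxicity toward P-gp-expressing KB-V1 cells was determined as loss of CellTiter-Glo luminescence after 72 h at 37 degrees C. Compounds were tested in quantitative HTS format across a concentration range, with curves fitted to normalized data.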
% is set by controls: 0 for no effect and ±100 for the full control effect; potency is the fitted concentration of half-maximal effect.

Structure (SMILES) | activity change, negative = cytotoxicity | Potency
Cc1ccc(C(C)C)cc1S(=O)(=O)Nc1cccnc1 | inactive: 10.6% | –
Cc1nn(C)cc1C(=O)Nc1cc(Oc2ccc(Cl)cc2)cc([N+](=O)[O-])c1 | – | inconclusive: 5.8 µM [cytotoxic, full curve]
O=C(COC(=O)CCSc1ccccc1)NCc1ccccc1 | inactive: -5.43% | –
O=C(Nc1ccccc1[N+](=O)[O-])C1C(c2ccccc2)=C1c1ccccc1 | – | inconclusive: 20.6 µM [cytotoxic, single point]
COc1ccc(C(O)c2nc(-c3ccc(Cl)cc3)cs2)cc1 (centres undefined) | – | inconclusive: 29.1 µM [cytotoxic, single point]
CC(C)(C)OC(=O)N1CCC[C@H]1C(=O)Nc1ccc(S(=O)(=O)C(F)F)cc1 | – | inconclusive: 32.6 µM [cytotoxic, partial curve, poor fit]
CN(C)c1ccc([N+](=O)[O-])cc1C(=O)O | – | inconclusive: 16.4 µM [rising, single point]
O=C(NCCc1ccccc1Cl)c1cc2ccccn2n1 | inactive: 7.79% | –
CCOC(=O)Cc1csc(NC(=O)COc2ccc(C)cc2)n1 | – | inconclusive: 29.1 µM [rising, single point]
CCN(CC(=O)Nc1cc(Cl)ccc1C)C(=O)CCc1nc2ccccc2c(=O)[nH]1 | – | inconclusive: 5.17 µM [cytotoxic, partial curve, poor fit]
CCCCn1c(=O)c2oc3ccccc3c2n(Cc2ccc(C)cc2)c1=O | – | inconclusive: 29.1 µM [cytotoxic, single point]
COC(=O)Nc1ccc(S(=O)(=O)N2c3ccccc3CCC2C)cc1 (centres undefined) | – | active: 4.11 µM
Cc1cc(Cl)ccc1NC(=O)CCC(=O)N/N=C/c1cc([N+](=O)[O-])ccc1O | – | inconclusive: 20.6 µM [cytotoxic, single point]
CC(C)(C)NC(=O)c1cc(-c2ccc3c(c2)OCO3)nc2ccccc12 | – | inconclusive: 20.6 µM [cytotoxic, single point]
Cc1nnc(SC2CC(=O)N(c3ccccc3)C2=O)s1 (centres undefined) | – | inconclusive: 7.31 µM [rising, partial curve, poor fit]
O=C(NCc1ccc(F)cc1)C1CCCN(C(=O)Nc2ccc(F)cc2)C1 (centres undefined) | inactive: -15.9% | –
C[C@@H](NC(=O)[C@H]1O[C@@H](n2cnc3c(N)ncnc32)[C@H](O)[C@@H]1O)c1cccc2ccccc12 | inactive: -0.245% | –
Cc1cccc(N2CCN(C(=O)CCCn3c(=S)[nH]c4cc5c(cc4c3=O)OCO5)CC2)c1C | – | active: 3.66 µM
COc1ccc(C(=O)N2CCN(c3ncccn3)CC2)cc1S(=O)(=O)N1CCOCC1 | – | inconclusive: 0.0058 µM [cytotoxic, full curve, poor fit]

A second format for some results above:

| Structure (SMILES) | activity change, negative = cytotoxicity | Potency |
| --- | --- | --- |
| CC(C)(C)OC(=O)N1CCC[C@H]1C(=O)Nc1ccc(S(=O)(=O)C(F)F)cc1 | – | inconclusive: 32.6 µM [cytotoxic, partial curve, poor fit] |
| CN(C)c1ccc([N+](=O)[O-])cc1C(=O)O | – | inconclusive: 16.4 µM [rising, single point] |
